US20080014191A1
No constants are given. Whether binding was seen depends on the method and setting. Binding seen in cells or lysates may run through a third protein. Some entries that bind do so weakly or less than the wild type.

By UniProt entry, the sequences of proteins in these tests, tags left out. Where a name states a change or a piece, a line headed by the entry shows the natural chain unless it says otherwise.
UniProt P13569: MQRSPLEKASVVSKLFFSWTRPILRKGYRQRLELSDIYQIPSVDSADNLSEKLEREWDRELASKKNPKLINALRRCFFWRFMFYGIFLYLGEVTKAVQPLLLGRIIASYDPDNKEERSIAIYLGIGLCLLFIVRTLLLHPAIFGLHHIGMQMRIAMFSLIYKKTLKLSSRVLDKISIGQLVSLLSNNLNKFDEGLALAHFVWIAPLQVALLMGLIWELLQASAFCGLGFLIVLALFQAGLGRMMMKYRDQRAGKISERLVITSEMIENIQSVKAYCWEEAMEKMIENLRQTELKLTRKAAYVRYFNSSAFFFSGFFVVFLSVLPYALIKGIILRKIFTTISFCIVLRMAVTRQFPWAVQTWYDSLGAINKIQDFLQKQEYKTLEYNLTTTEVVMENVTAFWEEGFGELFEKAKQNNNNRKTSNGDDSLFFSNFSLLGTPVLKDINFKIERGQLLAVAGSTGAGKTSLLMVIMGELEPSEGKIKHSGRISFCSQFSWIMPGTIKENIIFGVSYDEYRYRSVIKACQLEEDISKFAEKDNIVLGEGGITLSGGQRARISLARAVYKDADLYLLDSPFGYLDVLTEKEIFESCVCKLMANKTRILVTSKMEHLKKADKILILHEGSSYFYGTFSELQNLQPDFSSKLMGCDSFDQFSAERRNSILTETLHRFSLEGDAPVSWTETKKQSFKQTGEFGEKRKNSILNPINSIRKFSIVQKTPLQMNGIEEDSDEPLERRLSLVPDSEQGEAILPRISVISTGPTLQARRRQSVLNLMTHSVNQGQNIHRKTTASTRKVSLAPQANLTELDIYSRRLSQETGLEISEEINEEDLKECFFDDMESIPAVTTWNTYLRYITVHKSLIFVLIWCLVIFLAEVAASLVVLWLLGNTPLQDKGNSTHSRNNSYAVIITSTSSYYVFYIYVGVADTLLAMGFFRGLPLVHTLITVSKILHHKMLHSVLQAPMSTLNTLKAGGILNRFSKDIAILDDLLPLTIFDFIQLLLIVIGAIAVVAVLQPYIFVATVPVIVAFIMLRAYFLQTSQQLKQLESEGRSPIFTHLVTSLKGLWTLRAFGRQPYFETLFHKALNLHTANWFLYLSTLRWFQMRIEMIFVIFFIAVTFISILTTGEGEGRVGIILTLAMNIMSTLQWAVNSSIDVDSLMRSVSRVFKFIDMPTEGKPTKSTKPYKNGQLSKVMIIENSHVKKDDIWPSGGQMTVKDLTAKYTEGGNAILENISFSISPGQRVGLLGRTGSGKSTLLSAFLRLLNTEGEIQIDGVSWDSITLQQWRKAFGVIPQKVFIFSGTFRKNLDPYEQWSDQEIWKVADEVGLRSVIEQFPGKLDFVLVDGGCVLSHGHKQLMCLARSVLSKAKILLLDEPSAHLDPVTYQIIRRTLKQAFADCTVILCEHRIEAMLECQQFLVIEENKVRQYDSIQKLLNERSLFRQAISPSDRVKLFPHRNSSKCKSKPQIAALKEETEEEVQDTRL

Molecular target: ΔF508 CFTR (Homo sapiens (Human)) (UniProt P13569)
Assay: CFTR co-IP, MudPIT MS; BHK cells

B1: Calnexin (protein, UniProt P27824 21-592, looked up)
chain: HDGHDDDVIDIEDDLDDVIEEVEDSKPDTTAPPSSPKVTYKAPVPTGEVYFADSFDRGTLSGWILSKAKKDDTDDEIAKYDGKWEVEEMKESKLPGDKGLVLMSRAKHHAISAKLNKPFLFDTKPLIVQYEVNFQNGIECGGAYVKLLSKTPELNLDQFHDKTPYTIMFGPDKCGEDYKLHFIFRHKNPKTGIYEEKHAKRPDADLKTYFTDKKTHLYTLILNPDNSFEILVDQSVVNSGNLLNDMTPPVNPSREIEDPEDRKPEDWDERPKIPDPEAVKPDDWDEDAPAKIPDEEATKPEGWLDDEPEYVPDPDAEKPEDWDEDMDGEWEAPQIANPRCESAPGCGVWQRPVIDNPNYKGKWKPPMIDNPSYQGIWKPRKIPNPDFFEDLEPFRMTPFSAIGLELWSMTSDIFFDNFIICADRRIVDDWANDGWGLKKAADGAAEPGVVGQMIEAAEERPWLWVVYILTVALPVFLVILFCCSGKKQTSGMEYKKTDAPQPDVKEEEEEKEEEKDKGDEEEEGEEKLEEKQKSDAEEDGGTVSQEEEDRKPKAEEDEILNRSPRNRKPRRE
  binding: binds
